Results as given in patent US20160376632A1, “KINASE ACTIVITY DETECTION METHODS” (REGENTS OF THE UNIVERSITY OF MINNESOTA, priority 2014, published 2016).

Tests used:
[1] = Time-resolved luminescence (TR-LRET) emission spectra of phosphorylated vs unphosphorylated biosensor with Tb3+; type: physicochemical; details: 15 μM peptide, 100 μM Tb3+, λex 266 nm
Description: FIGS. 2A-B illustrate Time-Resolved Lanthanide-based Resonance Energy Transfer (TR-LRET) detection of phosphorylation-dependent signals and fluorescence cross-interference. FIG. 2A illustrates time-resolved luminescence emission spectra for SAStide-Cy5 (dashed line) and pSAStide-Cy5 (solid line). FIG. 2B illustrates the 5-FAM-SFAStide-A (dashed line) and 5-FAM-pSFAStide-A (solid line). Spectra were collected from 15 μM peptide in the presence of 100 μM Tb3+ in 10 mM HEPES, 100 mM NaCl, pH 7.5, λex=266 nm, in 50 μL total volume, 1 ms collection time, 50 μs delay time, and sensitivity 180. Data represent the average of experiments performed in triplicate.
Time-resolved analysis of each peptide biosensor in the presence of Tb^3+ provided the four characteristic luminescence emission peaks from Tb^3+ as well as the fluorescence emission peak from the conjugated fluorophore label (FIGS. 2A, 2B). […] These changes in the intensity of the fluorophore signals upon phosphorylation of their respective peptides provide sensor-specific spectral features that can be monitored to determine phosphorylation of the sensors and consequently kinase activity.
Time-resolved emission spectra were collected on a Biotek Synergy4 plate reader at room temperature in black 384-well plates (Greiner Fluortrac 200). […]

[2] = TR-LRET calibration curve / HTS screening parameters of biosensor phosphorylation; details: in kinase reaction buffer

| Substance | increase in intensity at the 5-FAM emission maximum, phosphorylated vs unphosphorylated biosensor ([1]; λ520) [fold] | Z′-factor [2] | signal window (SW) [2] | increase in intensity at the Cy5 emission maximum, phosphorylated vs unphosphorylated biosensor ([1]; λ670) [fold] |
| --- | --- | --- | --- | --- |
| 5-FAM-Ahx-GGEEDEDIYEELDEPGGKbiotinGG [5-FAM-pSFAStide-A] | 3.9 | – | – | – |
| GGDEEDYEEPDEPGGCCy5GG [SAStide-Cy5] | – | 0.72 | 13.27 | – |
| GGDEEDYEEPDEPGGCCy5GG [pSAStide-Cy5] | – | – | – | 25 |
| 5-FAM-Ahx-GGEEDEDIYEELDEPGGKbGG [5-FAM-SFAStide-A, Src-family kinase peptide biosensor labelled with 5-carboxyfluorescein] | – | 0.78 | 12.65 | – |
